Structures are written as SMILES. The list is a part of this screen's results and no random one: it gathers tests that were run many times, whatever their T/C, doses with no T/C, and many T/C values between a quarter and a half above the control. Further doses and runs are listed elsewhere. T/C: endpoint of the treated group in % of that of the vehicle group. Some doses have a count of surviving animals in place of a T/C: the source holds a T/C of zero for them, seemingly a mark for toxic or unscored doses. Some survivor counts are full or nearly so, which does not show that the dose was tolerated: the source hardly ever lists a survival T/C far under the control, and the zero likely stands for such cases as well. Survivors were counted at the toxicity check, usually on the fifth day, unless a day is given; later deaths do not show. Schedules are NCI's codes, taken here to give the interval after Q, in days (D) or hours (H), and the number of doses after X. Some molecules as drawn cover several salts, stereoisomers or complexes of the source; a dose is that of the sample tested. Where survival is the endpoint, the PubChem record calls one and a half times the control and up active, and a quarter to a half above the control has no call in these data; cut-offs in other NCI protocols can differ.

The experiment deals with P388 leukemia ip, CD2F1 mice, survival T/C. The experiment can be described thus: NCI In Vivo Anticancer Drug Screen. Data for tumor model P388 Leukemia (intraperitoneal) in CD2F1 (CDF1) mice. Particulars: T/C endpoint: median survival time, higher T/C = longer survival.
[1] abbreviates: dose: 50.0 mg/kg/injection, schedule: Q01DX009 (ip), vehicle: saline.
The mark [2] stands for this setting: dose: 100.0 mg/kg/injection, schedule: Q01DX005 (ip), vehicle: saline with Tween-80.
[3] abbreviates: dose: 200.0 mg/kg/injection, schedule: Q01DX005 (ip), vehicle: saline with Tween-80.
Setting [4] is: dose: 200.0 mg/kg/injection, schedule: Q01DX005 (ip), vehicle: Klucel (hydroxypropylcellulose) (HPC).
The mark [5] stands for this setting: dose: 400.0 mg/kg/injection, schedule: Q04DX002 (ip), vehicle: saline with Tween-80.
[6] abbreviates: dose: 50.0 mg/kg/injection, schedule: Q01DX009 (ip), vehicle: saline with Tween-80.
Setting [7] is: dose: 100.0 mg/kg/injection, schedule: Q01DX009 (ip), vehicle: saline with Tween-80.
Where [8] appears, read: dose: 200.0 mg/kg/injection, schedule: Q01DX009 (ip), vehicle: saline with Tween-80.
Where [9] appears, read: dose: 400.0 mg/kg/injection, schedule: Q01DX009 (ip), vehicle: Klucel (hydroxypropylcellulose) (HPC).
Where [10] appears, read: dose: 50.0 mg/kg/injection, schedule: Q01DX005 (ip), vehicle: saline with Tween-80.
Where [11] appears, read: dose: 200.0 mg/kg/injection, schedule: Q01DX009 (ip), vehicle: Klucel (hydroxypropylcellulose) (HPC).
Where [12] appears, read: dose: 240.0 mg/kg/injection, schedule: Q01DX005 (ip), vehicle: Klucel (hydroxypropylcellulose) (HPC).
Setting [13] is: dose: 200.0 mg/kg/injection, schedule: Q01DX009 (ip), vehicle: saline.
The mark [14] stands for this setting: dose: 240.0 mg/kg/injection, schedule: Q01DX005 (ip), vehicle: saline.
The mark [15] stands for this setting: dose: 50.0 mg/kg/injection, schedule: Q01DX009 (ip), vehicle: Klucel (hydroxypropylcellulose) (HPC).
[16] abbreviates: dose: 240.0 mg/kg/injection, schedule: Q01DX005 (ip), vehicle: saline with Tween-80.

For `O=C1CSc2ncccc2N1c1ccc([N+](=O)[O-])cn1`, under setting [1], the survivor count was 5 of 6.

Turning to `CCC(=O)OC1CC=NN2C(=O)C(NC(=O)c3nc4ccc(OC)cc4cc3O)COC(=O)C(C(C)(C)O)N(C)C(=O)CN(C)C(=O)CNC(=O)C3C(OC(C)=O)CC=NN3C(=O)C(NC(=O)c3nc4ccc(OC)cc4cc3O)COC(=O)C(C(C)(C)O)N(C)C(=O)CN(C)C(=O)CNC(=O)C12` (stereo not drawn), the T/C was 126 % of control (dose: 5.0 micrograms/kg/injection, schedule: Q01DX005 (ip), vehicle: DMSO) and 138 % of control (dose: 10.0 micrograms/kg/injection, schedule: Q01DX005 (ip), vehicle: DMSO).

Take `CC1=C(/C=C/C(C)=C/C=C/C(C)=C/C(=O)Nc2ccc(O)cc2)C(C)(C)CCC1`: the survivor count under setting [2] was 6 of 6 and the survivor count under setting [3] is reported as 6 of 6.

Turning to `O=C(NCCCCCNC(=O)C12CC3CC(CC(C3)C1)C2)C12CC3CC(CC(C3)C1)C2`, under setting [4], the survivor count is recorded as 6 of 6.

As for `C/C=C/C(=O)Oc1ccc[nH]c1=O`, the survivor count under setting [4] was 6 of 6.

Turning to `CC1=C2C3OC(=O)C(C)C3CCC2(C)CCC1=O` (stereo not drawn), the survivor count was 6 of 6 (dose: 100.0 mg/kg/injection, schedule: Q04DX002 (ip), vehicle: saline with Tween-80); 2 of 6 (dose: 200.0 mg/kg/injection, schedule: Q04DX002 (ip), vehicle: saline with Tween-80); 1 of 6 under setting [5].

For the compound `CC(=Nc1ccccc1)Nc1ccccc1.[Cu+2]`, the survivor count is reported as 5 of 6 under setting [6], 3 of 6 under setting [7] and 5 of 6 under setting [8].

Consider `NC(=O)NN=C(C1CC1)C1CC1`, for which the survivor count reads like this: (dose: 100.0 mg/kg/injection, schedule: Q01DX005 (ip), vehicle: Klucel (hydroxypropylcellulose) (HPC)) 3 of 5; under setting [4], 0 of 5.

Turning to `CCCc1c(C(=O)OCCCN(CC)CC)c(C(=O)OCCCN(CC)CC)c(CCC)n1-c1ccccc1`, the survivor count is, setting by setting: (dose: 50.0 mg/kg/injection, schedule: Q01DX005 (ip), vehicle: saline) 4 of 5; (dose: 100.0 mg/kg/injection, schedule: Q01DX005 (ip), vehicle: saline) 0 of 5; (dose: 200.0 mg/kg/injection, schedule: Q01DX005 (ip), vehicle: saline) 0 of 5.

Consider `C[N+](C)(C)CCC(=O)c1ccco1`, for which the survivor count under setting [6] is given as 2 of 6, the survivor count under setting [7] is reported as 0 of 6 and the survivor count under setting [8] is given as 0 of 6.

`O=S(=O)(Nc1ccc2ccccc2c1)N1CCCCC1`: under setting [9], the survivor count is reported as 5 of 5.

With `c1ccc2cc(N=NNc3ccc4ccccc4c3)ccc2c1`, the survivor count under setting [8] was 2 of 6.

`Cc1c(N=Nc2cccc(F)c2)c(-c2ccccc2)nn1C(N)=S`: the survivor count is 1 of 5 under setting [10], 0 of 5 under setting [2] and 0 of 5 under setting [3].

For `FC(F)(F)c1ccc(Cl)c(N=Cc2ccc(C=Nc3cc(C(F)(F)F)ccc3Cl)cc2)c1`, the survivor count under setting [11] is 3 of 6.

Consider `C=C1C(=O)OC2CC1CCC1(C)OC1CCC(C)=CCCC2(C)O` (stereo not drawn), for which, for the setting “dose: 60.0 mg/kg/injection, schedule: Q01DX009 (ip), vehicle: Klucel (hydroxypropylcellulose) (HPC)”, the survivor count is on record as 6 of 6.

Regarding `CC(Nc1ncnc2c1CCc1ccccc1-2)C(=O)O` (stereo not drawn), the survivor count under setting [5] is recorded as 2 of 6.

Regarding `COC1CC(C)(O)Cc2cc3c(c(O)c21)C(=O)c1c(O)cc2c(c1C3=O)OC1OC2(C)C(O)C(N(C)C)C1O` (stereo not drawn), the T/C reads like this: (dose: 1.6 mg/kg/injection, schedule: Q01DX009 (ip), vehicle: other) 128 % of control; (dose: 3.16 mg/kg/injection, schedule: Q01DX009 (ip), vehicle: other) 141 % of control.

For `O=C1C=CC(=O)c2cc(Cl)c(Cl)cc21`, the survivor count reads like this: (dose: 9.4 mg/kg/injection, schedule: Q01DX009 (ip), vehicle: saline with Tween-80) 3 of 6; (dose: 25.0 mg/kg/injection, schedule: Q04DX003 (ip), vehicle: saline with Tween-80) 2 of 6.

`COc1cc2c3c(c1OC)C=C[C@@H]1CCCN(CC2)[C@H]31`: the survivor count runs as follows: (dose: 60.0 mg/kg/injection, schedule: Q01DX005 (ip), vehicle: Klucel (hydroxypropylcellulose) (HPC)) 2 of 6; (dose: 120.0 mg/kg/injection, schedule: Q01DX005 (ip), vehicle: Klucel (hydroxypropylcellulose) (HPC)) 0 of 6; under setting [12], 0 of 6.

As for `Cc1c2oc3c(C)ccc(C(=O)NCCCN4CCN(C)CC4)c3nc-2c(C(=O)NCCCN2CCN(C)CC2)c(N)c1=O`, the T/C (dose: 50.0 mg/kg/injection, schedule: Q04DX003 (ip), vehicle: saline with Tween-80) was 125 % of control. The survivor count is, setting by setting: (dose: 200.0 mg/kg/injection, schedule: Q04DX003 (ip), vehicle: saline with Tween-80) 4 of 6; (dose: 400.0 mg/kg/injection, schedule: Q04DX003 (ip), vehicle: saline with Tween-80) 0 of 6.

On to `CCCN(CCC)CN(CCC)CCC`, for which the survivor count under setting [13] was 2 of 6.

With `CCC1C2Cc3ccc(O)cc3C1(CC)CCN2C` (stereo not drawn), the survivor count is, setting by setting: under setting [2], 0 of 6; under setting [4], 2 of 6; under setting [3], 0 of 6.

In the case of `CC(CN(C)C)C(=O)/C=C/c1ccc(F)c(F)c1` (stereo not drawn), under setting [14], the T/C is 138 % of control and the survivor count was 0 of 5. Further, under “dose: 480.0 mg/kg/injection, schedule: Q01DX005 (ip), vehicle: saline”, the survivor count is 0 of 5.

In the case of `O=C1Nc2ccc(Cl)cc2C(c2ccccc2Cl)=NC1O` (stereo not drawn), the survivor count under setting [9] is 2 of 6.

Take `C[C@]12CCC[C@@H]3C[C@@]31C[C@@H]([C@@]1(C)CO1)CC2`: the survivor count is, setting by setting: under setting [15], 6 of 6; under setting [11], 6 of 6.

In the case of `BrCc1cn2ccccc2n1`, the survivor count is 6 of 6 under setting [1]; 5 of 6 (dose: 100.0 mg/kg/injection, schedule: Q01DX009 (ip), vehicle: saline); 2 of 6 under setting [13].

`CCOC(=O)C1=C(N)C2CC(C)=C(C)CN2C1` (stereo not drawn): the survivor count under setting [3] is 0 of 5.

With `CCCCCCC(=O)/C=C/c1ccccc1OC(=O)c1ccc(Cl)cc1`, under setting [7], the survivor count was 6 of 6.

Regarding `COC(=O)c1nc(N)nc(C(=O)OC)c1C(=O)c1c(C)[nH]c2ccccc12`, the survivor count under setting [16] was 1 of 6.

For the compound `COc1ccc(N=NNc2ccc(OC)cc2)cc1`, for the setting “dose: 25.0 mg/kg/injection, schedule: Q01DX009 (ip), vehicle: saline with Tween-80”, the T/C was 127 % of control.

`CNC(=O)OCc1c(COC(=O)NC)c(C)n(-c2ccccc2)c1C`: the T/C (dose: 25.0 mg/kg/injection, schedule: Q01DX009 (ip), vehicle: Klucel (hydroxypropylcellulose) (HPC)) is 127 % of control. Besides, the survivor count by setting is: under setting [15], 6 of 6; (dose: 100.0 mg/kg/injection, schedule: Q01DX009 (ip), vehicle: Klucel (hydroxypropylcellulose) (HPC)) 5 of 6; under setting [11], 0 of 6.

As to `Cc1ccc(C(C)C)c2c1CN(CCN1COc3c(C(C)C)ccc(C)c3C1)CO2`, the survivor count runs as follows: (dose: 60.0 mg/kg/injection, schedule: Q01DX005 (ip), vehicle: saline with Tween-80) 6 of 6; (dose: 120.0 mg/kg/injection, schedule: Q01DX005 (ip), vehicle: saline with Tween-80) 6 of 6; under setting [16], 6 of 6.

On to `COC(=O)c1nc(N)nc(C(=O)OC)c1C(=O)c1ccncc1`, for which the survivor count under setting [12] is on record as 0 of 6.

Turning to `C/C(=N/NC(=S)N1CCCCCC1)c1ncccn1`, under “dose: 25.0 mg/kg/injection, schedule: Q01DX005 (ip), vehicle: saline with Tween-80”, the T/C was 125 % of control. Moreover, the survivor count reads like this: under setting [10], 5 of 6; under setting [2], 1 of 6; under setting [3], 0 of 6.
